One substance from patent US10023615B2 (priority 2008, dated 2018) can be followed below.

This series in a line: general procedure: Fmoc solid-phase peptide synthesis; Fmoc-Amide-AM resin; Fmoc-Rink Amide resin; HBTU/HOBt/DIEA in DMF; TBTU/HOBt/DIEA in DMF. To be noted: whole synthesis, scale of the general procedure 0.4 mmol, 0.23 mmol, 0.40 mmol.

Take “dqsrpvqpflnIttprkprpprrrqrrkkrg (DQSRPVQPFLNLTTPRKPRPPRRRQRRKKRG; D-amino acids; D-TAT-IB1 (XG-102); VARIANT (1)..(31) /replace=“D-amino acid”)”: the “purity (crude or final not stated)” value amounted to 95.28%.
